Measured values taken from paper PMC11142722.
Results are given in words; binding and its absence hold for the method and conditions named. In cells and extracts the contact can be indirect. Here binding means that the protein was enriched with, or labelled near, the bait; the list need not be complete.

Protein sequences, listed by entry. Tags and fused reporters are not part of them.
UniProt O75925: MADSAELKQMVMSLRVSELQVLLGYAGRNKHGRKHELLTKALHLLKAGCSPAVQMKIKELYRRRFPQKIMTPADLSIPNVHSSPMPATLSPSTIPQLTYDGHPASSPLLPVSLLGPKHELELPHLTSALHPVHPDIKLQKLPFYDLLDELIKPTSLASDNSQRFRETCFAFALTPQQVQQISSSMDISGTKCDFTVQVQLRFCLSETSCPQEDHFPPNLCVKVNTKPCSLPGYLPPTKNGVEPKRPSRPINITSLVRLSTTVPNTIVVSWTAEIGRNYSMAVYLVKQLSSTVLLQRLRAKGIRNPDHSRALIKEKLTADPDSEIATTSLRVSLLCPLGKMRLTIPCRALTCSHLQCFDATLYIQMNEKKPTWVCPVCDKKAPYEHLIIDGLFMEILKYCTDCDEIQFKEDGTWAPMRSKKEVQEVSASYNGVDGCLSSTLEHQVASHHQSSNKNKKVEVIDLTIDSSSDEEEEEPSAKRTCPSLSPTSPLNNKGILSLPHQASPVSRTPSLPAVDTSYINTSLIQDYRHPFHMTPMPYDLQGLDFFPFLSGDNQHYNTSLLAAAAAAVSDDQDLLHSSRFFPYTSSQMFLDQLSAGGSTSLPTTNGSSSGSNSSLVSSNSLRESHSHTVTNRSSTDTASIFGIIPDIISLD

Assays:
[1] = molecular target: HA-TurboID fused to the N-terminus of wildtype UL26 (Tur-N-UL26wt) (Human Cytomegalovirus (HCMV) AD169); assay: proximity labelling; MRC5 fibroblasts infected with Tur-N-UL26wt or Tur-N-UL26ΔC HCMV (MOI = 3), 1 μM biotin from 23 to 24 hpi, RIPA lysate, biotinylated proteins isolated on streptavidin magnetic beads and identified by LC-MS/MS (n = 1)
[2] = molecular target: HA-TurboID-PIAS1 (human) (UniProt O75925); assay: proximity labelling; HEK293T cells co-transfected with HA-TurboID-PIAS1 and UL26 WT or UL26ΔC, with or without cytokine (TNFα) treatment, 1 μM biotin for 1 hr at 47-48 h post transfection, Benzonase-treated lysate, streptavidin affinity purification, Western blot for UL26

B1: PIAS3 (protein, UniProt Q9Y6X2 1-628)
chain: MAELGELKHMVMSFRVSELQVLLGFAGRNKSGRKHELLAKALHLLKSSCAPSVQMKIKELYRRRFPRKTLGPSDLSLLSLPPGTSPVGSPGPLAPIPPTLLAPGTLLGPKREVDMHPPLPQPVHPDVTMKPLPFYEVYGELIRPTTLASTSSQRFEEAHFTFALTPQQVQQILTSREVLPGAKCDYTIQVQLRFCLCETSCPQEDYFPPNLFVKVNGKLCPLPGYLPPTKNGAEPKRPSRPINITPLARLSATVPNTIVVNWSSEFGRNYSLSVYLVRQLTAGTLLQKLRAKGIRNPDHSRALIKEKLTADPDSEVATTSLRVSLMCPLGKMRLTVPCRALTCAHLQSFDAALYLQMNEKKPTWTCPVCDKKAPYESLIIDGLFMEILSSCSDCDEIQFMEDGSWCPMKPKKEASEVCPPPGYGLDGLQYSPVQGGDPSENKKKVEVIDLTIESSSDEEDLPPTKKHCSVTSAAIPALPGSKGVLTSGHQPSSVLRSPAMGTLGGDFLSSLPLHEYPPAFPLGADIQGLDLFSFLQTESQHYGPSVITSLDEQDALGHFFQYRGTPSHFLGPLAPTLGSSHCSATPAPPPGRVSSIVAPGGALREGHGGPLPSGPSLTGCRSDIISLD
For B1, the binding [1] was “binds”.

B2: UL26 WT (protein, UniProt P16762 1-222)
chain: MYAVFGLTRSEVTPHEAAAARYKHRGVIDRQGAAMTSRRAPDGGLNLDDFMRRQRGRHLDLPYPRGYTLFVCDVEETILTPRDVEYWKLLVVTQGQLRVIGTIGLANLFSWDRSVAGVAADGSVLCYEISRENFVVRAADSLPQLLERGLLHSYFEDVERAAQGRLRHGNRSGLRRDADGQVIRESACYVSRVLLRHRVTPGKQEITDAMFEAGNVPSALLP
B2 was tested, and the binding [2] was “binds”.

B3: PIAS4 (protein, UniProt Q8N2W9 1-510)
chain: MAAELVEAKNMVMSFRVSDLQMLLGFVGRSKSGLKHELVTRALQLVQFDCSPELFKKIKELYETRYAKKNSEPAPQPHRPLDPLTMHSTYDRAGAVPRTPLAGPNIDYPVLYGKYLNGLGRLPAKTLKPEVRLVKLPFFNMLDELLKPTELVPQNNEKLQESPCIFALTPRQVELIRNSRELQPGVKAVQVVLRICYSDTSCPQEDQYPPNIAVKVNHSYCSVPGYYPSNKPGVEPKRPCRPINLTHLMYLSSATNRITVTWGNYGKSYSVALYLVRQLTSSELLQRLKTIGVKHPELCKALVKEKLRLDPDSEIATTGVRVSLICPLVKMRLSVPCRAETCAHLQCFDAVFYLQMNEKKPTWMCPVCDKPAPYDQLIIDGLLSKILSECEDADEIEYLVDGSWCPIRAEKERSCSPQGAILVLGPSDANGLLPAPSVNGSGALGSTGGGGPVGSMENGKPGADVVDLTLDSSSSSEDEEEEEEEEEDEDEEGPRPKRRCPFQKGLVPAC
In the case of B3, the binding [1] is reported as “binds”.
